The text below walks through data of publication PMC9234244.

By UniProt entry, the sequences of proteins in these tests, tags left out. Residues count along the entry.
UniProt P27467, residues 19-352: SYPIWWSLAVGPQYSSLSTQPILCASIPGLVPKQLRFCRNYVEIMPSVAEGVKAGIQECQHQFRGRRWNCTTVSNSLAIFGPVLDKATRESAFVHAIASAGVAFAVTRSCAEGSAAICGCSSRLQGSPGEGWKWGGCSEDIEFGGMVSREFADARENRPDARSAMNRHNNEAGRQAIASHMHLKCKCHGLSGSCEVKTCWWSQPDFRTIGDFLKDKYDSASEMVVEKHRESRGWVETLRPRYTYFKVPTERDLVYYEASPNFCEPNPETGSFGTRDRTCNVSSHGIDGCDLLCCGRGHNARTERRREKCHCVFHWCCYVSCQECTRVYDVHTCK
UniProt O75581, residues 20-1613: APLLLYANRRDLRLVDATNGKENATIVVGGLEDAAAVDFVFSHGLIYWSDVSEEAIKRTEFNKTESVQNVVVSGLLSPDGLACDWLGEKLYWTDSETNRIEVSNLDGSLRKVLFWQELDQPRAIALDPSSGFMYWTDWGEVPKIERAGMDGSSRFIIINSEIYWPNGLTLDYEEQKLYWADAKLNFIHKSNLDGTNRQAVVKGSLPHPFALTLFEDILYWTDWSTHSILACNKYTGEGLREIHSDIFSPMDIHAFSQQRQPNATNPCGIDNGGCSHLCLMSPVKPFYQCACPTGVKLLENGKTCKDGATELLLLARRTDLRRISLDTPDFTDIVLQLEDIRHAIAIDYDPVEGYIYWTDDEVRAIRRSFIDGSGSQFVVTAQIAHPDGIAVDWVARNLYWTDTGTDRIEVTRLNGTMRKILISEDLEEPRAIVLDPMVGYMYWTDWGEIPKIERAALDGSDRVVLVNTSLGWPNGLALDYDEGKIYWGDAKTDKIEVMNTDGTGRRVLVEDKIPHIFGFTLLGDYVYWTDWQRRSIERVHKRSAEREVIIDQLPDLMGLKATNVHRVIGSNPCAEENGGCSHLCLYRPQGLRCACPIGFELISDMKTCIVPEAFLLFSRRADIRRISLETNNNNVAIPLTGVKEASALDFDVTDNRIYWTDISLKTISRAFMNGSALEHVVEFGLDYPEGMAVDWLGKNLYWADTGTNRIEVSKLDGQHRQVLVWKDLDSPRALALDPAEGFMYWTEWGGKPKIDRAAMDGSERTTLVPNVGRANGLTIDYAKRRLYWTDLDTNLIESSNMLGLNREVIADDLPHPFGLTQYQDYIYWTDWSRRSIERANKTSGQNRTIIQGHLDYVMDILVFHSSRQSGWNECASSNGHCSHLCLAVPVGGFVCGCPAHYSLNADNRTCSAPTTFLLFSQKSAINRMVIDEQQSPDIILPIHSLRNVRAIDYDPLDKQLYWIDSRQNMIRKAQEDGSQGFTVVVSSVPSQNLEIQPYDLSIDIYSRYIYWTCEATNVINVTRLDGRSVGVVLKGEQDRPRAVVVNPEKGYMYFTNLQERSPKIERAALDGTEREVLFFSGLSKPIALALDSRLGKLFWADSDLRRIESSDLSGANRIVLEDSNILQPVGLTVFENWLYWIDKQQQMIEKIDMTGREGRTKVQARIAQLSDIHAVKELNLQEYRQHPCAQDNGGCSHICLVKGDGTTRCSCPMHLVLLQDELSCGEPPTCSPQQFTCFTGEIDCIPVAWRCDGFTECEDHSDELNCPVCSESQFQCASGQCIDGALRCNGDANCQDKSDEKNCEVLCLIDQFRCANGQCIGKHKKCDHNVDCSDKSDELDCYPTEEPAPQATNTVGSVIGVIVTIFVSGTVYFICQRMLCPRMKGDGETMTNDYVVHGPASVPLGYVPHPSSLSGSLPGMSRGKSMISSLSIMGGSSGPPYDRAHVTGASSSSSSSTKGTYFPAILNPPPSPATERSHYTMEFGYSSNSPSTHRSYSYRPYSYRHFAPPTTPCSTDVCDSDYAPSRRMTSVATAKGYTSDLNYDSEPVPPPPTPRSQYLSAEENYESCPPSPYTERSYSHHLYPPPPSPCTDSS

Results are given in words; binding and its absence hold for the method and conditions named. For part of these data: In cells and extracts the contact can be indirect. Some entries that bind do so weakly or less than the wild type. For part of these data: Where a sequence is shown, tags or fusion partners need not be part of it.

Assay [1] concerns the target T1, SNAP-tagged FZD4 (SNAP-FZD4) (UniProt Q61088).
T1 sequence (chain, BG-PEG12-Biotin on the SNAP tag (cell surface labelling experiment only)): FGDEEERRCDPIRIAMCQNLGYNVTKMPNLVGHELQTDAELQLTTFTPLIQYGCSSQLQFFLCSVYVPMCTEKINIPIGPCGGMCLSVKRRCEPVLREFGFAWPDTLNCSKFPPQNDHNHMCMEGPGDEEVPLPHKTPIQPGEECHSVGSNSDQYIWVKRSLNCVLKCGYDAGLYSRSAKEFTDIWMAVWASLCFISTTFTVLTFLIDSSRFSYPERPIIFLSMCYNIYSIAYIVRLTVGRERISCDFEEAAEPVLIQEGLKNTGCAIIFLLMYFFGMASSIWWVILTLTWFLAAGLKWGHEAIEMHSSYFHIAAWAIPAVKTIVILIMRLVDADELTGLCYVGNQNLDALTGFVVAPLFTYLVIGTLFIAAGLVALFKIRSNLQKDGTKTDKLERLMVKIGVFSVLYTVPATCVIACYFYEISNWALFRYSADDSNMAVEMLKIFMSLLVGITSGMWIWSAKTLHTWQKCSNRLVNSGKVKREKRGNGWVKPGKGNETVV
The assay is described as follows: pull-down; HEK293T cells expressing SNAP-FZD4 and MESD incubated 3 h with Wnt3a conditioned medium with or without FSTL1-HA conditioned medium; surface SNAP-FZD4 labelled with 1 μM BG-PEG12-Biotin 15 min at room temperature; lysates on streptavidin–agarose 6 h; blot for WNT3a and SNAP-FZD4.

The target of assay [2] is T2, Recombinant FSTL1 protein (mFSTL1) (mouse) (UniProt Q62356).
T2 sequence: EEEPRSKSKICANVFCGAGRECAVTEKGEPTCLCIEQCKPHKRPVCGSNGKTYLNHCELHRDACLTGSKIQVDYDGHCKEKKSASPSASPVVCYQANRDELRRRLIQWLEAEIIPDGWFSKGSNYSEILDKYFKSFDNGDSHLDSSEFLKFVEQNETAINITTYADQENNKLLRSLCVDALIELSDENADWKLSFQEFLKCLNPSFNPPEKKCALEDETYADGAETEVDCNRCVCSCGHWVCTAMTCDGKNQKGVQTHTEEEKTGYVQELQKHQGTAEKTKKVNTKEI
The assay is described as follows: co-IP; recombinant Wnt3a (1.5 μg) with or without recombinant FSTL1 (3 μg) in 300 μl Tris-buffered saline/0.1% Triton X-100 overnight at 4 °C; anti-FSTL1 antibodies, then Protein G agarose blocked with 1% BSA; both purified.

For assay [3], the target named is T3, FSTL1-HA (follistatin-like 1, HA-tagged) (UniProt Q62356).
T3 sequence: T2 sequence
Put plainly: co-IP; conditioned medium of co-transfected HEK293T cells immunoprecipitated with anti-HA or anti-V5; Western blotting.

Assay [4] has as its target T4, WNT1, endogenous in mouse kidney with UUO (mouse (endogenous in UUO kidney)) (UniProt P04426).
T4 sequence: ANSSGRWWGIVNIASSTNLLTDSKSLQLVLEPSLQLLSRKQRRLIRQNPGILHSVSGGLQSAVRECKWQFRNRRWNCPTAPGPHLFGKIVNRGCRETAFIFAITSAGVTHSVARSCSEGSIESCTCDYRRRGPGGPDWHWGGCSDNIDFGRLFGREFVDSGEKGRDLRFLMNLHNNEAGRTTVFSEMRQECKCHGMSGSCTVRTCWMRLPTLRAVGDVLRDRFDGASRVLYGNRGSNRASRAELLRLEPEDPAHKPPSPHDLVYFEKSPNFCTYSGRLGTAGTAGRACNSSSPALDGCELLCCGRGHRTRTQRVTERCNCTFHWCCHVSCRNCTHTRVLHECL
Put plainly: co-IP; endogenous proteins; whole lysates of mouse kidneys with UUO for 7 days, preabsorbed with protein G beads, incubated with rabbit anti-Wnt1 and rabbit anti-WNT3a together (or normal rabbit IgG) at 4 °C overnight, Protein A beads; blot with anti-FSTL1.

For assay [5], the target named is WNT3a, endogenous in mouse kidney with UUO (mouse (endogenous in UUO kidney)) (UniProt P27467). The assay is described as above.
The target in assay [6] is T1, SNAP-tagged FZD4 (SNAP-FZD4). The assay is described as follows: co-IP; HEK293T cells co-transfected; whole cell lysates incubated with the antibody at 4 °C overnight, then protein G or protein A beads 6 h at 4 °C; Western blotting.
The target in assay [7] is LRP6 (low-density lipoprotein receptor–related protein 6) (UniProt O75581). Put plainly: co-IP; HEK293T cells co-transfected with FSTL1-HA, FZD4 and LRP6 plasmids; lysates immunoprecipitated with anti-LRP6.
For assay [8], the target named is T3, FSTL1-HA (follistatin-like 1, HA-tagged). The assay is described as follows: co-IP; HEK293T cells co-transfected; whole cell lysates incubated with the antibody at 4 °C overnight, then protein G or protein A beads 6 h at 4 °C; Western blotting.

“Wnt3a in conditioned medium (Wnt3a CM) (from UniProt P27467 19-352) (ligand)”: the binding entry in assay [1] is “binds”.
Take “Recombinant WNT3a protein (from UniProt P27467 19-352) (ligand)”: the binding result in assay [2] was “binds”.

B1: Wnt2-V5 (ligand, UniProt P09544 26-360)
chain: SWWYMRATGGSSRVMCDNVPGLVSSQRQLCHRHPDVMRAISQGVAEWTAECQHQFRQHRWNCNTLDRDHSLFGRVLLRSSRESAFVYAISSAGVVFAITRACSQGEVKSCSCDPKKMGSAKDSKGIFDWGGCSDNIDYGIKFARAFVDAKERKGKDARALMNLHNNRAGRKAVKRFLKQECKCHGVSGSCTLRTCWLAMADFRKTGDYLWRKYNGAIQVVMNQDGTGFTVANERFKKPTKNDLVYFENSPDYCIRDREAGSLGTAGRVCNLTSRGMDSCEVMCCGRGYDTSHVTRMTKCGCKFHWCCAVRCQDCLEALDVHTCKAPKNADWTTAT
Consider B1, for which, in assay [3], the binding result is “binds”.

B2: FSTL1, endogenous in mouse kidney with UUO (protein, UniProt Q62356 19-306)
chain: T2 sequence
For the molecule B2, the binding result in assay [4] and in assay [5] was “binds” throughout.

B3: FSTL1 that does not have a tag (full-length, FL) (protein, UniProt Q62356 19-306)
chain: T2 sequence
Turning to B3, the binding entry in assay [6] is listed as “binds”.

B4: FZD4 (Frizzled-4) (receptor, UniProt Q61088 37-537)
chain: T1 sequence (chain, BG-PEG12-Biotin on the SNAP tag (cell surface labelling experiment only))
Regarding B4, the binding result in assay [7] and in assay [8] was “binds” each time.

B5: Wnt1 (ligand, UniProt P04426 28-370)
chain: T4 sequence
For B5, the binding result in assay [8] is reported as “binds”.
